Results are given in words; binding and its absence hold for the method and conditions named. Binding seen in cells or lysates may run through a third protein. Some binding calls cover weakened binding; strength is not graded here.
Target: UbcH10 (human (endogenous in HEK 293)) (UniProt O00762)
Test: co-IP; HEK 293 cells transfected with p53-WT and ubiquitin-HA; total protein immunoprecipitated with anti-UbcH10 antibody, Western blot with anti-p53 antibody

Sequences of proteins named here, by UniProt entry; tags and fusion partners are left off.
UniProt O00762: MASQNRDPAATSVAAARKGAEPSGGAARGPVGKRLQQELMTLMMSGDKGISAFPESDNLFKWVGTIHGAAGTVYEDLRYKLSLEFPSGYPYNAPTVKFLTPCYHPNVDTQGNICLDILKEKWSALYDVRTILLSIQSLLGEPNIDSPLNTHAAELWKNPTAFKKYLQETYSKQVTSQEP

binding: binds
Substance: p53-WT (from UniProt P04637 1-393)
